# This is one part of the list. Many values rest on one well or one pass, so single values are uncertain.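 The apoptosis fraction was the count of cleaved-PARP antibody-stained nuclei relative to all DNA-stained nuclei, imaged in 1,536-well plates. Screening doses were set so most cells survived, and baseline and induced cleaved-PARP levels vary greatly across cell lines.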
# Test system: SkMel2
# Assay: cleaved PARP positive nuclei fraction relative to DMSO control; melanoma cells; higher = more apoptosis
# Settings: library dose: low library concentration; 72 h
row,Compound,cleaved PARP positive nuclei fraction
1,"NC(=O)c1ccc(N(C(N)=O)c2c(F)cccc2F)nc1-c1ccc(F)cc1F + Nc1nc(F)nc2c1ncn2[C@@H]1O[C@H](CO)[C@@H](O)[C@@H]1O [fludarabine] (first compound 0.4 µM, partner dose 0.2 µM)",726%
2,"Cn1sc(=O)n(Cc2ccccc2)c1=O + CNC(=O)c1cc(Oc2ccc(NC(=O)Nc3ccc(Cl)c(C(F)(F)F)c3)cc2)ccn1 [sorafenib] (first compound 0.4 µM, partner dose 0.4 µM)",48.4%
3,"COc1ccc(C2=N[C@@H](c3ccc(Cl)cc3)[C@@H](c3ccc(Cl)cc3)N2C(=O)N2CCNC(=O)C2)c(OC(C)C)c1 [Nutlin-3] + CN(c1ncccc1CNc1nc(Nc2ccc3c(c2)CC(=O)N3)ncc1C(F)(F)F)S(C)(=O)=O [PF562271] (first compound 0.1 µM, partner dose 0.08 µM)",115%
4,"CN(c1ncccc1CNc1nc(Nc2ccc3c(c2)CC(=O)N3)ncc1C(F)(F)F)S(C)(=O)=O + Cn1c(=O)n(-c2ccc(C(C)(C)C#N)cc2)c2c3cc(-c4cnc5ccccc5c4)ccc3ncc21 [NVP-BEZ235] (first compound 0.08 µM, partner dose 0.004 µM)",89.2%
5,"Cn1sc(=O)n(Cc2ccccc2)c1=O + CCN(CC)CCNC(=O)c1c(C)[nH]c(/C=C2\C(=O)Nc3ccc(F)cc32)c1C [sunitinib] (first compound 0.4 µM, partner dose 0.4 µM)",57.4%
6,"CC1(C)CCC(c2ccc(Cl)cc2)=C(CN2CCN(c3ccc(C(=O)NS(=O)(=O)c4ccc(N[C@H](CCN5CCOCC5)CSc5ccccc5)c(S(=O)(=O)C(F)(F)F)c4)cc3)CC2)C1 + Cc1nc(Nc2ncc(C(=O)Nc3c(C)cccc3Cl)s2)cc(N2CCN(CCO)CC2)n1 [dasatanib] (first compound 0.4 µM, partner dose 0.004 µM)",134%
7,"Cn1cnc2c(F)c(Nc3ccc(Br)cc3Cl)c(C(=O)NOCCO)cc21 [selumetinib] + Cn1c(Nc2ccc(C(F)(F)F)cc2)nc2cc(Oc3ccnc(-c4ncc(C(F)(F)F)[nH]4)c3)ccc21 [CHIR265] (first compound 0.015 µM, partner dose 0.08 µM)",450%
8,"C[C@@H](N)c1ccc(C(=O)Nc2ccnc3[nH]ccc23)cc1 + Nc1ncn([C@H]2C[C@H](O)[C@@H](CO)O2)c(=O)n1 [decitabine] (first compound 0.4 µM, partner dose 0.1 µM)",103%
9,"CC1(C)CCC(c2ccc(Cl)cc2)=C(CN2CCN(c3ccc(C(=O)NS(=O)(=O)c4ccc(N[C@H](CCN5CCOCC5)CSc5ccccc5)c(S(=O)(=O)C(F)(F)F)c4)cc3)CC2)C1 + COCC[n+]1c2c(n(Cc3cnccn3)c1C)C(=O)c1ccccc1C2=O [YM155] (first compound 0.4 µM, partner dose 0.0004 µM)",76.1%
10,"Cn1sc(=O)n(Cc2ccccc2)c1=O + CS(=O)(=O)CCNCc1ccc(-c2ccc3ncnc(Nc4ccc(OCc5cccc(F)c5)c(Cl)c4)c3c2)o1 [lapatinib] (first compound 0.4 µM, partner dose 0.8 µM)",108%
11,"Cn1cnc2c(F)c(Nc3ccc(Br)cc3Cl)c(C(=O)NOCCO)cc21 [selumetinib] + Nc1nc(F)nc2c1ncn2[C@@H]1O[C@H](CO)[C@@H](O)[C@@H]1O [fludarabine] (first compound 0.015 µM, partner dose 0.2 µM)",1090%
12,"CS(=O)(=O)c1ccc(C(=O)Nc2ccc(Cl)c(-c3ccccn3)c2)c(Cl)c1 [vismodegib] + CC(C)C[C@H](NC(=O)[C@H](Cc1ccccc1)NC(=O)c1cnccn1)B(O)O [Bortezomib] (first compound 1 µM, partner dose 0.001 µM)",86%
13,"CC1(C)CCC(c2ccc(Cl)cc2)=C(CN2CCN(c3ccc(C(=O)NS(=O)(=O)c4ccc(N[C@H](CCN5CCOCC5)CSc5ccccc5)c(S(=O)(=O)C(F)(F)F)c4)cc3)CC2)C1 + C=C(c1ccc(C(=O)O)cc1)c1cc2c(cc1C)C(C)(C)CCC2(C)C [Bexarotene] (first compound 0.4 µM, partner dose 2 µM)",202%
14,"CS(=O)(=O)c1ccc(C(=O)Nc2ccc(Cl)c(-c3ccccn3)c2)c(Cl)c1 [vismodegib] + CC(=O)c1c(C)c2cnc(Nc3ccc(N4CCNCC4)cn3)nc2n(C2CCCC2)c1=O [palbociclib] (first compound 1 µM, partner dose 0.04 µM)",58.7%
15,"NC(=O)c1ccc(N(C(N)=O)c2c(F)cccc2F)nc1-c1ccc(F)cc1F + C#Cc1cccc(Nc2ncnc3cc(OCCOC)c(OCCOC)cc23)c1 [erlotinib] (first compound 0.4 µM, partner dose 0.8 µM)",45.8%
16,"CS(=O)(=O)c1ccc(C(=O)Nc2ccc(Cl)c(-c3ccccn3)c2)c(Cl)c1 [vismodegib] + Nc1nc(F)nc2c1ncn2[C@@H]1O[C@H](CO)[C@@H](O)[C@@H]1O [fludarabine] (first compound 1 µM, partner dose 0.2 µM)",431%
17,"NC(=O)c1ccc(N(C(N)=O)c2c(F)cccc2F)nc1-c1ccc(F)cc1F + C=CCNC1=C2C[C@@H](C)C[C@H](OC)[C@H](O)[C@@H](C)/C=C(\C)[C@H](OC(N)=O)[C@@H](OC)/C=C\C=C(/C)C(=O)NC(=CC1=O)C2=O [Tanespimycin] (first compound 0.4 µM, partner dose 0.002 µM)",104%
18,"CC(=O)O[C@@]12CO[C@@H]1C[C@H](O)[C@@]1(C)C(=O)[C@H](O)C3=C(C)[C@@H](OC(=O)[C@H](O)[C@@H](NC(=O)OC(C)(C)C)c4ccccc4)C[C@@](O)([C@@H](OC(=O)c4ccccc4)[C@H]21)C3(C)C [Docetaxel] + C=C(c1ccc(C(=O)O)cc1)c1cc2c(cc1C)C(C)(C)CCC2(C)C [Bexarotene] (first compound 0.0001 µM, partner dose 2 µM)",1130%
19,"CC(=O)O[C@@]12CO[C@@H]1C[C@H](O)[C@@]1(C)C(=O)[C@H](O)C3=C(C)[C@@H](OC(=O)[C@H](O)[C@@H](NC(=O)OC(C)(C)C)c4ccccc4)C[C@@](O)([C@@H](OC(=O)c4ccccc4)[C@H]21)C3(C)C [Docetaxel] + C[C@]1(c2nc3c(C(N)=O)cccc3[nH]2)CCCN1 [Veliparib] (first compound 0.0001 µM, partner dose 1.4 µM)",1480%
20,"CCN(CC)CCNC(=O)c1c(C)[nH]c(/C=C2\C(=O)Nc3ccc(F)cc32)c1C [sunitinib] + OCc1c[nH]c2ccccc12 [Indole-3-carbinol] (first compound 0.4 µM, partner dose 0.8 µM)",51.5%
21,"C[C@]1(O)C[C@@H](c2nc(-c3ccc4ccc(-c5ccccc5)nc4c3)c3c(N)nccn32)C1 + CCCS(=O)(=O)Nc1ccc(F)c(C(=O)c2c[nH]c3ncc(Cl)cc23)c1F [PLX4720] (first compound 0.4 µM, partner dose 0.08 µM)",231%
22,"Cn1cnc2c(F)c(Nc3ccc(Br)cc3Cl)c(C(=O)NOCCO)cc21 [selumetinib] + C#Cc1cccc(Nc2ncnc3cc(OCCOC)c(OCCOC)cc23)c1 [erlotinib] (first compound 0.015 µM, partner dose 0.8 µM)",373%
23,"Cn1sc(=O)n(Cc2ccccc2)c1=O + OCc1c[nH]c2ccccc12 [Indole-3-carbinol] (first compound 0.4 µM, partner dose 0.8 µM)",179%
24,"Cn1cnc2c(F)c(Nc3ccc(Br)cc3Cl)c(C(=O)NOCCO)cc21 [selumetinib] + C[C@@H](Oc1cc(-c2cnn(C3CCNCC3)c2)cnc1N)c1c(Cl)ccc(F)c1Cl [Crizotinib] (first compound 0.015 µM, partner dose 0.2 µM)",149%
25,"NC(=O)c1ccc(N(C(N)=O)c2c(F)cccc2F)nc1-c1ccc(F)cc1F + Clc1ccc(Nc2nnc(Cc3ccncc3)c3ccccc23)cc1 [vatalanib] (first compound 0.4 µM, partner dose 2 µM)",75.3%
26,"Cn1sc(=O)n(Cc2ccccc2)c1=O + Clc1ccc(Nc2nnc(Cc3ccncc3)c3ccccc23)cc1 [vatalanib] (first compound 0.4 µM, partner dose 2 µM)",55.8%
27,"COc1ccc(C2=N[C@@H](c3ccc(Cl)cc3)[C@@H](c3ccc(Cl)cc3)N2C(=O)N2CCNC(=O)C2)c(OC(C)C)c1 [Nutlin-3] + CC(=O)c1c(C)c2cnc(Nc3ccc(N4CCNCC4)cn3)nc2n(C2CCCC2)c1=O [palbociclib] (first compound 0.1 µM, partner dose 0.04 µM)",31.7%
28,"COc1ccc(C2=N[C@@H](c3ccc(Cl)cc3)[C@@H](c3ccc(Cl)cc3)N2C(=O)N2CCNC(=O)C2)c(OC(C)C)c1 [Nutlin-3] + Cn1c(=O)n(-c2ccc(C(C)(C)C#N)cc2)c2c3cc(-c4cnc5ccccc5c4)ccc3ncc21 [NVP-BEZ235] (first compound 0.1 µM, partner dose 0.004 µM)",94.7%
29,"NC(=O)c1ccc(N(C(N)=O)c2c(F)cccc2F)nc1-c1ccc(F)cc1F + C=C(c1ccc(C(=O)O)cc1)c1cc2c(cc1C)C(C)(C)CCC2(C)C [Bexarotene] (first compound 0.4 µM, partner dose 2 µM)",121%

# Two consecutive entries from above:
row,Compound,cleaved PARP positive nuclei fraction
24,"Cn1cnc2c(F)c(Nc3ccc(Br)cc3Cl)c(C(=O)NOCCO)cc21 [selumetinib] + C[C@@H](Oc1cc(-c2cnn(C3CCNCC3)c2)cnc1N)c1c(Cl)ccc(F)c1Cl [Crizotinib] (first compound 0.015 µM, partner dose 0.2 µM)",149%
25,"NC(=O)c1ccc(N(C(N)=O)c2c(F)cccc2F)nc1-c1ccc(F)cc1F + Clc1ccc(Nc2nnc(Cc3ccncc3)c3ccccc23)cc1 [vatalanib] (first compound 0.4 µM, partner dose 2 µM)",75.3%
